The values below come from PubChem BioAssay AID493014 (National Center for Advancing Translational Sciences (NCATS), 2011).

The list shows a part of the results. Shown are side measurements of this screen, not its main read-out; they come without a call. Most of these compounds were active or inconclusive in the main read-out, so they are no random draw. The note in brackets gives the kind of curve behind each potency; many fits are weak.

The assay can be described thus: qHTS Assay to Find Inhibitors of Chronic Active B-Cell Receptor Signaling. As to conditions: ABC-DLBCL IkBa-CBG/CBR reporter, luminescence ratio (green luciferase fused to IkBa over red control in TMD8 lymphoma cells), 4 h. In outline: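 TMD8 human ABC-DLBCL cells with doxycycline-inducible IκBα–green luciferase fusion and unfused red luciferase, in 0.5% FBS medium; compounds up to 46 uM, 4 h at 37C. Green/red luminescence ratio, filter-overlap corrected, fitted to concentration-response curves.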

Where [1] appears, read: measured here: CBR red luminescence, cell number.
Setting [2] is: measured here: IkBa-CBG green luminescence.

What is called AC50 is the concentration giving half of the maximal activity seen. Take `O=C(Nc1ccc(C(=O)Oc2ccccc2)c(O)c1)c1ccccc1`: the AC50 reads like this: under setting [1], 6.31 µM [falling, single point]; under setting [2], 6.31 µM [rising, partial curve, poor fit].

On to `CSc1ccc(/C=N/NC(=O)c2cc(O)cc(O)c2)cc1`, for which the AC50 under setting [1] is 8.2 µM [falling, partial curve].

For the compound `Cc1cc(OCC(O)CN2C(C)CCCC2C)ccc1C(C)C` (stereo not drawn), the AC50 under setting [1] was 35.5 µM [falling, single point].

As for `Cc1cccc(OCC(=O)Nc2ccc3c(c2)OCCO3)c1`, the AC50 under setting [1] is 0.00411 µM [rising, full curve, poor fit].

As to `N=C(N)SCc1ccc(Cl)cc1Cl`, the AC50 under setting [1] was 23.1 µM [falling, single point].

For `CNc1c(NC(=O)c2ccc3c(c2)OCO3)c(=O)oc2ccccc12`, the AC50 under setting [1] was 12.6 µM [falling, partial curve].

As to `COc1ccc(/C=C(\C#N)C(=O)NCc2ccccc2)cc1O`, the AC50 under setting [1] was 20 µM [falling, partial curve, poor fit].

`Brc1ccc(NC(c2ccccc2)c2ccncc2)cc1` (stereo not drawn): the concentration at half-maximal activity (AC50) under setting [1] was 35.5 µM [rising, single point].

For `COCCCNC(=O)C1CCN(Cc2cc3ccccc3n2Cc2cccc(Cl)c2)CC1`, the AC50 under setting [1] was 14.1 µM [falling, single point].

On to `Cc1cccc(OCC2=NS(=O)(=O)c3ccccc3N2)c1`, for which, under setting [1], the AC50 is 35.5 µM [falling, single point].

On to `CCOC(=O)c1nc(NCc2ccccc2)sc1C`, for which the AC50 under setting [1] is 35.5 µM [falling, single point].

In the case of `Cc1ccc(S(=O)(=O)Nc2ccc(Br)cc2/C=N/n2cnnc2)cc1`, the AC50 under setting [1] is 4.47 µM [rising, partial curve, poor fit].

Consider `Nc1nc(N2CCN(c3ccccn3)CC2)nc2ccccc12`, for which the AC50 under setting [1] is 0.355 µM [rising, full curve].

In the case of `COc1cccc(C(=O)NNC(=O)c2cccc(F)c2)c1`, the AC50 under setting [1] is 10 µM [falling, partial curve].

With `CC(=O)Nc1cccc(OCCCOc2ccc([N+](=O)[O-])cc2)c1`, under setting [1], the AC50 is 12.6 µM [rising, partial curve, poor fit].

As to `COc1ccccc1CNCC(c1ccccc1)c1ccccc1`, under setting [1], the concentration at half-maximal activity (AC50) was 31.6 µM [falling, single point].

On to `Clc1cccc(Cl)c1-c1noc(-c2ccno2)n1`, for which the AC50 under setting [1] was 11.2 µM [rising, single point].

On to `CCOC(=O)c1cccc(NC(=O)c2ccc(N(C)C)cc2)c1`, for which, under setting [1], the AC50 was 4.61 µM [falling, full curve].

Turning to `O=C(Cn1c2c(c(-c3ccccc3Cl)cc1=O)CCC2)NCC1CCCO1` (stereo not drawn), the AC50 under setting [1] is 4.47 µM [rising, single point].

Turning to `COC(=O)c1c(NC(=O)CSc2nc3ccccc3c(=O)n2Cc2ccco2)sc(C)c1C`, the AC50 under setting [1] was 4.11 µM [falling, full curve, poor fit].

With `COc1ccc(-c2[nH]ncc2CN(CCO)Cc2cccs2)c(F)c1`, the AC50 was 6.31 µM [falling, single point] under setting [1] and 5.01 µM [rising, partial curve, poor fit] under setting [2].

With `COc1ccc(NC2=CC(=O)CC(c3ccccc3)C2)cc1` (stereo not drawn), under setting [1], the AC50 was 0.282 µM [rising, full curve, poor fit].

Turning to `O=C(N/N=C/c1ccoc1)c1cc(O)cc(O)c1`, the AC50 under setting [1] was 10 µM [falling, partial curve, poor fit].

Regarding `COc1ccccc1-c1sc2cc3c(cc2c1-c1ccc(OCCN2CCOCC2)cc1)OCO3`, the AC50 under setting [2] is 16.4 µM [falling, partial curve, poor fit].

As to `CSCCC(NC(=O)c1ccc(Cl)cc1)C(=O)NC(C)(C)C` (stereo not drawn), under setting [1], the concentration at half-maximal activity (AC50) was 29.1 µM [falling, single point].

With `COc1ccc(Nc2cc(C(=O)NCc3ccccn3)c3ccccc3n2)c(OC)c1`, the AC50 under setting [1] was 6.31 µM [falling, full curve].

For `Cn1c(=O)[nH]c(Nc2ccc(F)cc2)c([N+](=O)[O-])c1=O`, under setting [1], the AC50 is 29.1 µM [falling, single point].

Regarding `CSCC[C@H](N)C(=O)NC[C@H]1O[C@@H](n2cnc3c(N)ncnc32)[C@H](O)[C@@H]1O`, under setting [1], the AC50 was 13 µM [rising, partial curve, poor fit].

Consider `CC(=O)c1cccc(NC(=O)c2ccc(N(Cc3ccc(C)cc3)S(C)(=O)=O)cc2)c1`, for which, under setting [1], the concentration at half-maximal activity (AC50) was 8.2 µM [falling, partial curve, poor fit].

`O=c1c2c(nc3cc(-c4ccc(F)cc4)[nH]n13)CCCC2`: under setting [1], the AC50 is 10 µM [falling, partial curve, poor fit].

As for `COc1ccc2c(c1)c1ccccc1n2C`, the AC50 under setting [1] was 29.1 µM [rising, single point].

For the compound `CNC[C@@H](C)NC[C@@H](Cc1ccccc1)NCCc1ccccc1`, under setting [1], the AC50 is 35.5 µM [falling, single point].

As to `CCOC(=O)c1ccc2nc(Nc3nc4ccc(F)cc4s3)sc2c1`, the AC50 under setting [1] was 0.0517 µM [falling, full curve].

As to `CCCc1cc(=O)[nH]c(SCc2csc(-c3ccccc3)n2)n1`, the AC50 under setting [1] is 29.1 µM [falling, single point].

Turning to `O=C(CCCN1C(=O)/C(=C\c2ccccc2)SC1=S)Nc1ccccc1O`, the AC50 under setting [1] was 3.55 µM [falling, partial curve, poor fit].

For `COc1ccccc1C(=O)NCCC(=O)NC1CCC(C)CC1` (stereo not drawn), the AC50 under setting [1] was 29.1 µM [falling, single point].

As to `Cc1ccccc1C(=O)NNC(=O)c1cc(N)cc([N+](=O)[O-])c1`, under setting [1], the concentration at half-maximal activity (AC50) was 14.6 µM [falling, single point].

Turning to `CCOC(=O)c1cc(OC(=O)c2cccc([N+](=O)[O-])c2)n(-c2ccccc2)n1`, the AC50 under setting [1] is 0.82 µM [falling, full curve, poor fit].

In the case of `CC(Cc1ccc(Cl)cc1)N1CCC(n2nccc2NC(=O)C2CCCC2)CC1` (stereo not drawn), the AC50 under setting [1] was 11.2 µM [falling, partial curve].

Consider `Clc1ccc(/C=N/Nc2nc(Cl)nc3ccccc23)cc1`, for which the concentration at half-maximal activity (AC50) under setting [1] is 0.501 µM [falling, full curve, poor fit].

On to `O=C(Nc1cnn(Cc2ccccc2)c1)c1nc2ncccn2n1`, for which, under setting [1], the half-maximal activity concentration (AC50) was 35.5 µM [falling, single point].

`CCOC(=O)CN(C(=O)COC(=O)C1(c2ccccc2)CC1)c1ccc(F)cc1`: under setting [1], the AC50 was 1.3 µM [falling, full curve].

As to `O=C(Cc1ccc(-n2c(=O)c3ccccc3n(Cc3ccccc3F)c2=O)cc1)NCC1CCCO1` (stereo not drawn), the AC50 by setting is: under setting [1], 10.3 µM [rising, partial curve, poor fit]; under setting [2], 5.8 µM [falling, partial curve].

Take `COc1ccc(NC(=O)C2CC(=O)N(c3cc(C)ccc3C)C2)cc1` (stereo not drawn): the AC50 under setting [1] was 23.1 µM [rising, partial curve, poor fit].

For the compound `COc1ccc(NCc2ccc(OC)c(OC)c2)cc1`, the half-maximal activity concentration (AC50) under setting [1] was 7.08 µM [rising, partial curve].

In the case of `O=C(Nc1ccccc1C(=O)NCCCn1ccnc1)c1ccccc1`, the AC50 under setting [1] is 0.116 µM [falling, full curve, poor fit].

With `COc1cccc(/C=C2\SC(=S)N(N3CCOCC3)C2=O)c1OC`, the AC50 under setting [1] was 14.6 µM [rising, single point].

For the compound `Cc1nc(N2CCN(c3ccccc3O)CC2)c2c(-c3ccccc3)csc2n1`, under setting [1], the AC50 was 20 µM [falling, single point].

`CN(C)N=Nc1nc2c(c(=O)n(C)c(=O)n2C)n1C`: the concentration at half-maximal activity (AC50) under setting [1] is 3.98 µM [falling, full curve].

Turning to `CC1(C)CC(NC(=O)c2cc(S(=O)(=O)N3CCCCC3)ccc2Cl)CC(C)(C)N1`, the concentration at half-maximal activity (AC50) under setting [1] is 0.794 µM [rising, full curve, poor fit].

On to `COc1c(Br)cc(/C=N/n2c(-c3ccccc3)n[nH]c2=S)c(O)c1Br`, for which, under setting [1], the AC50 is 22.4 µM [falling, partial curve].

As to `CC(C)n1cc(-c2ccc(Cl)cc2)cc(C#N)c1=O`, the AC50 under setting [1] is 2.06 µM [rising, full curve, poor fit].

In the case of `Cc1ccc(NC(=O)c2ccc3c(c2)OCCO3)nc1`, the AC50 under setting [1] was 11.6 µM [falling, partial curve].

Take `COc1ccc2c(c1)C(c1cccs1)=NNC(c1cccnc1)=N2`: under setting [1], the AC50 is 11.2 µM [falling, partial curve].

As to `O=C(NC1CCCC1)C(c1cccs1)N(Cc1ccco1)C(=O)c1csnn1` (stereo not drawn), the AC50 under setting [1] is 20.6 µM [falling, single point].

On to `COc1ccc(CCNC(=O)c2ccc(SC)cc2OC)cc1`, for which the AC50 under setting [1] is 31.6 µM [falling, single point].

As for `COc1ccc(CNc2nc(NCc3ccc(OC)cc3)c3ncn(C4CCCC4)c3n2)cc1`, the half-maximal activity concentration (AC50) reads like this: under setting [1], 8.2 µM [rising, partial curve]; under setting [2], 4.61 µM [falling, full curve].

Consider `O=[N+]([O-])c1ccc(Sc2cccc[n+]2[O-])c2nonc12`, for which the half-maximal activity concentration (AC50) under setting [1] was 7.08 µM [falling, partial curve, poor fit].

On to `O=C(/C=C/c1cccs1)Nc1nc(-c2ccccc2)cs1`, for which the AC50 under setting [1] is 9.2 µM [falling, partial curve, poor fit].

Take `Cc1cc(C(=O)Nc2cccc3ccccc23)co1`: the AC50 under setting [1] was 7.94 µM [falling, partial curve, poor fit].

On to `COc1cc(C(=O)N2CCC(C(=O)Nc3cccc(C(C)=O)c3)CC2)cc(OC)c1OC`, for which the AC50 under setting [1] is 7.94 µM [rising, partial curve].

For `O=C(O)c1ccc(-n2nnnc2Oc2ccccc2C(=O)N2CCOCC2)cc1`, under setting [1], the AC50 was 20.6 µM [rising, partial curve, poor fit].

With `Cc1cc(=O)n2c3ccccc3n(CC(O)CN3CCCC3)c2c1C#N` (stereo not drawn), under setting [1], the AC50 was 6.31 µM [rising, full curve, poor fit].

In the case of `COc1ccc(S(=O)(=O)N2Cc3ccccc3CC2C(=O)O)cc1` (stereo not drawn), under setting [1], the AC50 was 6.51 µM [rising, single point].
